Reference: patent EP0748793A1, “KETOPANTHENOL WITH ACETYLATING PROPERTIES” (TOVARISCHESTVO S OGRANICHENNOI OTVETSTVENNOSTJU " PANT", priority 1994, dated 1995)

Tested on: acetylation of aromatic amines (N-acetylation)
Assay: Acetylating properties of the organism: acetylation of sodium sulfacyl, arylamines determined in urine
Format: in vivo, white rats
Conditions: rats, agent i.p. for 4 days, then Na sulfacyl 20 mg/kg i.p.
Description: The level of the organism supply with a vitamin is determined by the study of the reaction of acetylation of exogenous aromatic amines. The total acetylating properties of the organism were assessed by the method of quantitative determination of the content of arylamines in the examined substrate (urine).
Sodium sulfacyl was chosen as the substance for acetylation.
The influence of 4-days of injections of ketopanthenol on the acetylating properties of white rats was examined during the experiments.
The experiments were carried out using mongrel pubescent male rats. 14 animals were included in each group. The examined agent was injected intraperitoneally in a dose of 29 mg/kg. On the 4th day 4 hours after the last injection of the examined agent the sodium sulfacyl solution in a dose of 20 mg/kg was injected intraperitoneally. All the rats were separated into exchangeable cages for urine gathering. The resulting data were compared with the control groups (group I - only received sodium sulfacyl in a dose of 20 mg/kg, and group II received calcium D-pantothenate).
The average weight of the animals in the group fluctuated within 154.7 ± 10.8 g, the absolute dose of sodium sulfacyl was 3.09 ± 0.14 mg.

SMILES | Diuresis M± m
CC(C)(CO)C(=O)C(=O)NCCCO [ketopanthenol] | 1.7 ± 0.3
CC(C)(CO)[C@@H](O)C(=O)NCCC(=O)O [D (+) pantothenate Ca, calcium D-pantothenate, reference compound] | 3.9 ± 0.2
